Source: ChEMBL document CHEMBL3988442, “University of Dundee, Small-Polar-MMV Screening Library” (2021).

T. brucei: 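Whole-parasite assay of Trypanosoma brucei over 72 hours; the read-out is not stated. Tested at 30 µM. Higher reads as stronger inhibition (inferred: compounds with an IC50 in retests scored well above the rest). Values scatter widely below zero; nearly all retest evidence comes from the higher of the two concentrations used. Of about 64,000 compounds tested this way, about 940 (1.5%) reached 50% or more in at least one test.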
Toxoplasma: 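Assay of Toxoplasma gondii numbers, read through their beta-galactosidase reporter with a colour substrate. Tested at 10 µM. The record gives no direction; the compounds picked for IC50 retests had high values, so higher reads as fewer parasites. Size under these conditions: about 67,000 compounds, about 260 of them at 50% or above in at least one test.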
Leishmania in macrophages: 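Cell assay of Leishmania donovani living inside macrophages; the read-out is not stated. Concentration: 30 µM. Higher reads as stronger inhibition (inferred: compounds with an IC50 in retests scored well above the rest). Of about 69,000 compounds tested this way, about 1,000 (1.5%) reached 50% or more in at least one test.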

Values are the deposited “Percent Effect”, in %. How 0% and 100% were set is not recorded. Most values in the screen are low, and negative values occur. Compounds were drawn at random from those tested, without regard to their results. Two or more numbers in one place are separate tests of the same structure; such repeats can differ widely. A dash means the value is not listed here; it may have been measured.

SMILES	T. brucei	Toxoplasma	Leishmania in macrophages
CC(C)c1nc(C2CCCN(C(=O)c3ccc4c(c3)COC4)C2)no1 (centres undefined)	-	4.24%	33.04%
CCc1nc(-c2ccc(NC(=O)N3CCOCC3)cc2)no1	4.335%	-17.76%	20.76% & -1.045%
CCc1nsc(N2CCOC3(CCCC3)C2)n1	-17.08%	12.04%	25.24%
CC1CN(Cc2cccc(CNC3CCCC3)c2)CCO1 (centres undefined)	-15.49%	-6.993%	26.66%
O=C(NCCCn1nc2ccccn2c1=O)NCC(C1CC1)C1CC1	-24.71%	-18.85%	22.59%
O=C(O)C(F)(F)F.O=C(O)C(F)(F)F.[H][C@@]12CC(=O)N(c3cccnc3)[C@@]1([H])CCN2c1ncc(CC)cn1	-16.61%	7.718%	2.391%
CC(C)C(C)(C#N)NC(=O)Cn1cc(I)cn1 (centres undefined)	-19.7%	-8.157%	21.8%
O=C(O)C(F)(F)F.O=C1CCC2(CCN(Cc3nccs3)CC2)N1Cc1ccccc1	-8.129%	-1.276%	7.564%
CO[C@H]1CCN(S(=O)(=O)c2cccs2)[C@H]1Cc1cccnc1.O=C(O)C(F)(F)F	-21.41%	-8.568%	-18.55%
O=C(O)C(F)(F)F.O=C1CC2(CCCCN2CC2CC2)CN1c1ccccc1 (centres undefined)	-	-14.31%	20.41%
Cc1csc2c(=O)n(CCN3CCC(c4ccccc4)CC3)cnc12	-86.51%	-2.055%	-32.46%
O=C(NCCn1nc(-n2cncn2)ccc1=O)c1ccsc1	-53.41%	8.255%	-18.78%
Cc1noc(C)c1-c1nc(C2CCCN(CCC(N)=O)C2)ccc1CO (centres undefined)	-6.873%	-27.31%	7.995%
CC(C)C1SCC(=O)Nc2c1c(O)nn2C1CCCC1 (centres undefined)	-3.036%	2.737%	25.76% & 5.219%
CCOc1cccc2c1OCC(C(=O)NS(=O)(=O)c1ccc(Cl)cc1)=C2	-43%	2.24%	-28.07%
Cl.[H][C@@]12CCN(Cc3ccsc3)C[C@]1([H])[C@@H](c1cccc(OC)c1)CN2C(C)=O	96.3%	13.73%	-1.187% & 12.36%
O=C(CC1CC2(CCNCC2)c2ccccc21)NCC1CC1 (centres undefined)	-24.68%	4.397%	28.16%
COc1ccccc1OC(C)CNC(=O)c1cnc[nH]1 (centres undefined)	-38.99%	-18.19%	5.778%
Cc1nccn1C1CCCN(C(=O)c2ccc3c(c2)nnn3C)C1 (centres undefined)	-4.828%	6.842%	34.4%
Cc1nc2ncnn2c(C)c1CCC(=O)Nc1cccn(C)c1=O	-22.23%	-18.55%	13.44%
COc1ccc2[nH]cc(C(=O)N3C[C@@H](O)[C@H](N4CCOCC4)C3)c2c1	-	3.488%	10.77%
COCC(=O)Nc1ccc(Sc2nncn2C)c(Cl)c1	-31.21%	10.05%	-20.73%
CC1CCN(C(=O)c2occc2COc2cccc(C#N)c2)CC1	-	15.25%	-100.8%
Cc1ncc(S(C)(=O)=O)c(C2CCCNC2)n1 (centres undefined)	-6.561%	-36.46%	-3.422%
Cc1cnn(CC2CCCN2Cc2c(C)noc2C)c1 (centres undefined)	-	-6.062%	17.74%
COCC(C)N1CCN(CCc2ccc3c(c2)CCO3)CC1 (centres undefined)	-52.05%	8.35%	-12.97%
CCCc1nnc(N2CCC(N3CCN(CCO)CC3)CC2)o1	-63.15%	-33.78%	31.37%
COc1ccc(OC)c(C(=O)N2CCC(Nc3cccnc3)CC2)c1	-15.33%	-17.36%	-8.71%
COc1ccccc1CN1CC[C@]2(C[C@@H](OCC(=O)N(C)C)CO2)C1.O=C(O)C(F)(F)F	-34.16%	-4.583%	48.44%
CCC(C)NS(=O)(=O)Cc1cccc(NC(=O)c2cc[nH]c2C)c1 (centres undefined)	-325.2%	4.174%	-48.03%
COCC(C)NC(=O)c1nnn(-c2ccc(F)cc2)n1 (centres undefined)	-11.5%	-5.352%	16.11%
COCC1CN(Cc2ccc(C)o2)Cc2ncn(CC3CC3)c21 (centres undefined)	-1.616%	-0.4399%	11.85%
CSc1ccc(CNc2ccccc2CN2CCC(O)CC2)cc1	-41.92%	4.072%	-12.86%
COCc1nc(CNc2cc(C)nc(-c3ccccc3)n2)no1	-18.31%	-0.2533%	25.25%
CN(CC(=O)N1CC(C)(C)[C@](O)(C2CC2)C1)Cc1cccnc1	-	-9.583%	-11.31%
CS(=O)(=O)c1ncc(CN2CCCC(C(N)=O)C2)n1CC1CCCCC1 (centres undefined)	-13.38%	17.93%	8.328%
Cc1cc(C)nc(CCNc2nccc(CCC(F)(F)F)n2)n1	-145.1%	7.831%	-2.043%